Source: PubChem BioAssay AID652272 (Drosophila RNAi Screening Center, 2013)
The deposit covers about 21,000 reagents; this is a random part of those with a known target gene and a result. Of all reagents, 503 (2.4%) are marked active. 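Raw plate light values, not normalised; calls rest on replicate z-scores that were not deposited; hits include reporter decreases as well as increases.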 A plus sign joins genes that one reagent is predicted to hit. Reagent sequences are not shown. Not stated in the record: the amount of reagent, the time to read-out.

Aim: 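Genome-wide knock-down search for components of Hedgehog signalling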 (primary screen)
System: Drosophila clone 8 (Cl8) cells
Knock-down reagent: long dsRNA against Drosophila genes
Measurement: 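Firefly light from a Hedgehog-responsive ptc promoter reporter and Renilla reference light, both read on a plate reader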
Direction: firefly Hh reporter signal: higher = more ptc reporter light; Renilla reference signal: higher = more Renilla control light
Rule for the call: 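Called a hit if the two-replicate mean z-score lies below -2 or above +3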
Meaning of the calls: active = hit: reporter lowered or raised; inactive = not a hit

Gene	firefly Hh reporter signal, replicate 1	firefly Hh reporter signal, replicate 2	firefly Hh reporter signal, replicate 3	Renilla reference signal, replicate 1	Renilla reference signal, replicate 2	Call
CG40498	1.11e5	3.07e5		2936	11909	inactive
Enoph	94162	1.89e5		4266	5569	inactive
CG8838	93810	60857		4193	2549	inactive
salr	73360	72173		1843	6689	inactive
Takl2	6.14e5	1.05e5		30163	3257	inactive
CG9961	1.11e5	83602		2486	2313	inactive
CG11710	85252	2.39e5		2086	8971	inactive
CG15445	53257	83145		1493	2192	inactive
Idgf4	75976	1.54e5		2168	6307	inactive
CG43393	1.12e5	2.06e5		2820	8103	inactive
CG14000	94187	31613		2554	3508	inactive
Klc	1.03e5	58777		4644	2621	inactive
Ccp84Ag	1.17e5	1.44e5		3632	4081	inactive
Droj2	90209	59148		3882	1840	inactive
CG9992	81368	81412		1520	1255	inactive
Obp99b	74080	82454		2868	2568	inactive
Gyc89Da	1.44e5	1.36e5		5328	2872	inactive
Kdm5	91601	51517		2472	1910	inactive
CG1943	1.07e5	1.01e5		4091	3148	inactive
Ythdc1	1.28e5	1.12e5		6252	4196	inactive
Grl58a	1.28e5	78365		3173	5645	inactive
COX7A	86528	1.54e5		2956	3308	inactive
tilB	41174	1.31e5		1211	6324	inactive
CG18748	51129	1.22e5		1920	3525	inactive
Pef	94088	59266		4044	2256	inactive
CG13991	1.28e5	66352		3232	6473	inactive
CG15615	47174	44245		1120	3218	inactive
Mi-2	1.18e5	1.32e5		4468	3269	inactive
CG32564	78784	2.98e5		1200	11385	inactive
Tpc2	71952	47404		1659	3239	inactive
Dus1	1.04e5	66028		2624	1475	inactive
GstT2	1.03e5	54473		2699	4833	inactive
CG11983	80097	82407		3104	2424	inactive
ND-13B	48337	31792	61126	4411	4128	inactive
Mst89B	64790	1.24e5		1952	3581	inactive
Rh3	1.11e5	83779		5314	3573	inactive
Prosalpha3T	1.16e5	1.51e5		4560	5185	inactive
CG31245	7.02e5	1.10e5		36951	2583	inactive
nst	86899	66780		3013	2298	inactive
CG10562	92250	1.68e5		1401	3735	inactive
Larp7	65226	1.70e5		2533	6500	inactive
CR43999 (retired record)	5.73e5	1.31e5		30474	4217	inactive
ida	76902	49608		2355	3669	inactive
Ugt35D1	85448	4.16e5		1349	14480	inactive
CG17477	65249	72295		1184	1911	inactive
CG18542 + CG32939	1.10e5	85784		4411	3063	inactive
loopin-1	85760	50608		4010	1989	inactive
BTBD9	1.31e5	3.41e5		3703	12220	inactive
CG14096	1.69e5	1.57e5		5651	4513	inactive
CG34129	5.57e5	97866		34977	1840	inactive
CG31717	4.57e5	1.47e5		26116	6539	inactive
CG34221	68724	66705		1692	6088	inactive
sxc	73460	87104		1748	6224	inactive
MCU	78445	62716		9473	3866	inactive
CG30010	98476	2.45e5		2293	9888	inactive
CG9119	94183	82816		4265	3370	inactive
CG4382	1.56e5	93424		3850	7109	inactive

Part of the list above, reformatted.
Gene | firefly Hh reporter signal, replicate 1 | firefly Hh reporter signal, replicate 2 | firefly Hh reporter signal, replicate 3 | Renilla reference signal, replicate 1 | Renilla reference signal, replicate 2 | Call
CG11710 | 85252 | 2.39e5 | – | 2086 | 8971 | inactive
CG15445 | 53257 | 83145 | – | 1493 | 2192 | inactive
Idgf4 | 75976 | 1.54e5 | – | 2168 | 6307 | inactive
CG43393 | 1.12e5 | 2.06e5 | – | 2820 | 8103 | inactive
CG14000 | 94187 | 31613 | – | 2554 | 3508 | inactive
Klc | 1.03e5 | 58777 | – | 4644 | 2621 | inactive
